Sequences of proteins named here, by UniProt entry; tags and fusion partners are left off. Residues count along the entry.
UniProt P18031, 1-321 C215S limits assumed: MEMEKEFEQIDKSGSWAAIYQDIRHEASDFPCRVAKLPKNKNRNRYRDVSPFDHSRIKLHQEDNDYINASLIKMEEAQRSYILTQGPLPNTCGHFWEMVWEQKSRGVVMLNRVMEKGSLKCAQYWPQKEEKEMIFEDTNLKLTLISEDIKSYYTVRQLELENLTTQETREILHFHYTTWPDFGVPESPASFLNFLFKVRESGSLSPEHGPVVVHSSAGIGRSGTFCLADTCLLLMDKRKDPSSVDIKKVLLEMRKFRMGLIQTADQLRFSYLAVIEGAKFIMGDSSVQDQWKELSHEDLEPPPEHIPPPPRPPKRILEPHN

In patent US20040191926A1 (priority 2001, published 2004):

How the values were obtained:
GST-PTP1B/C215S = GST-PTP1B/C215S (Homo sapiens, UniProt P18031, C215S); test: ELISA-based PTP1B ligand screening: displacement of GST-PTP1B/C215S from biotinylated DADEpYL-NH2
PTP1B/C215S = PTP1B/C215S (Homo sapiens, UniProt P18031, C215S); test: Equilibrium dialysis determination of Kd; settings: pH 7.0 and 4° C.

NC(=O)[C@H](Cc1ccc(OP(=O)(O)O)cc1)NC(=O)[C@H](CC(=O)O)NC(=O)Cc1ccc(OP(=O)(O)O)cc1
affinity determined by the ELISA assay (GST-PTP1B/C215S; from Table 1 ratio): 30 nM | effectiveness as PTP1B ligand in ELISA screen (GST-PTP1B/C215S; library members at 250 nM): most effective | Kd (PTP1B/C215S): 32 nM

The structures given here were assigned with low confidence; some may be wrong.
